{
  "sequences": {"note": "The chains behind the UniProt entries cited, without tags or fusion partners.", "UniProt O14980, whole entry": "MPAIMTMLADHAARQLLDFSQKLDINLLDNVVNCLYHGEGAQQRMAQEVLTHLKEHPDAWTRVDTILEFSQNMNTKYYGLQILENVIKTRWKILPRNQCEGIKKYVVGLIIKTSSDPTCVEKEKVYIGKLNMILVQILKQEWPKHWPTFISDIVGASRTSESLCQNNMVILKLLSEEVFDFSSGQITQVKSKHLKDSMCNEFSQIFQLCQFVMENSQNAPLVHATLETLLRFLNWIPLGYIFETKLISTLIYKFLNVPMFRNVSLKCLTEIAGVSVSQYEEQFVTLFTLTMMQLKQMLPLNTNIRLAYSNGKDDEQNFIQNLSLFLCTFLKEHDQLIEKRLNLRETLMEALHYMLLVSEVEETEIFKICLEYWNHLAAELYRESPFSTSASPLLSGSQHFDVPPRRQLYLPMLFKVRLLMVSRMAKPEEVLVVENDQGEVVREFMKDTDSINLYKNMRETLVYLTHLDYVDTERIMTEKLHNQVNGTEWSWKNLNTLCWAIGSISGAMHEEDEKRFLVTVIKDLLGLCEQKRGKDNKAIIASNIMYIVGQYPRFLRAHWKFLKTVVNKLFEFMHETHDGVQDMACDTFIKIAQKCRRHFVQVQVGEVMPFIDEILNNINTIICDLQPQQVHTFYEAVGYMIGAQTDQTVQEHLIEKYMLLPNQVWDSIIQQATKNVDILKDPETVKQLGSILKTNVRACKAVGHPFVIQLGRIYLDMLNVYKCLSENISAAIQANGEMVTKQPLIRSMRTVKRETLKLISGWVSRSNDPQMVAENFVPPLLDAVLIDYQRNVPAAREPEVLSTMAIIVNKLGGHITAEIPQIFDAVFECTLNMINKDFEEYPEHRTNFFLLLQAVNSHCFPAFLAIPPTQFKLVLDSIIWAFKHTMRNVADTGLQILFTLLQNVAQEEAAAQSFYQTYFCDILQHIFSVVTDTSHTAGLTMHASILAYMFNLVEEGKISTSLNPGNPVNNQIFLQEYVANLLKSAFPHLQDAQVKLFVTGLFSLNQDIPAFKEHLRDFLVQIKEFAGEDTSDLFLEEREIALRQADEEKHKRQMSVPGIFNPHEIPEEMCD"},
  "source": "the supplement of paper PMC11098740",
  "note": "The other results are listed elsewhere or left out. Many values rest on one well or one pass, so single values are uncertain.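 The assay uses a mixed pool of 41 HAP1 clones in which 61 cancer-associated proteins bear intron-inserted fluorescent tags, and clones are distinguished by image pattern. Results are compared against DMSO-treated control wells, and the BRD4 degrader dBET6 is the positive control.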",
  "data": [
    {"biological_target": "XPO1 (intron 15 mScarlet tag, HAP1) (UniProt O14980)", "assay": "XPO1 fluorescence intensity change vs DMSO (log2 fold change); higher = more XPO1 protein", "details": "6 h", "values": [
      {"molecule": "Cc1ncsc1-c1ccc(CNC(=O)[C@@H]2C[C@@H](O)CN2C(=O)[C@@H](NC(=O)C2(F)CC2)C(C)(C)C)c(OCCOc2ccc(CN3CCN(c4cc(-c5ccccc5O)nnc4N)CC3)cc2)c1", "note": "(0.1 µM)", "XPO1 fluorescence intensity change (log2)": -0.00285},
      {"molecule": "CC(=O)Oc1ccccc1C(=O)Nc1ncc([N+](=O)[O-])s1", "note": "[Nitazoxanide] (10 µM)", "XPO1 fluorescence intensity change (log2)": 0.074},
      {"molecule": "O=C1CN(/N=C/c2ccc(-c3ccc([N+](=O)[O-])cc3)o2)C(=O)N1", "note": "[Dantrolene] (10 µM)", "XPO1 fluorescence intensity change (log2)": -0.0218},
      {"molecule": "CC(C)(Sc1cc(C(C)(C)C)c(O)c(C(C)(C)C)c1)Sc1cc(C(C)(C)C)c(O)c(C(C)(C)C)c1", "note": "[Probucol] (10 µM)", "XPO1 fluorescence intensity change (log2)": 0.0161},
      {"molecule": "CC(C)NCC(O)c1ccc(O)c(O)c1", "note": "(stereo not drawn) [Isoproterenol] (10 µM)", "XPO1 fluorescence intensity change (log2)": -0.138},
      {"molecule": "O=C1CC2(CCCC2)CC(=O)N1CCCCN1CCN(c2ncccn2)CC1", "note": "[Buspirone] (10 µM)", "XPO1 fluorescence intensity change (log2)": -0.117},
      {"molecule": "C1CNCCN1", "note": "[Piperazine Hexahydrate] (10.008 µM)", "XPO1 fluorescence intensity change (log2)": 0.151},
      {"molecule": "CN1C(=O)CC(c2ccccc2)C1=O", "note": "(stereo not drawn) [Phensuximide] (10 µM)", "XPO1 fluorescence intensity change (log2)": 0.0603},
      {"molecule": "COC(=O)C1=C(C)NC(C)=C(C(=O)OCC(C)C)C1c1ccccc1[N+](=O)[O-]", "note": "(stereo not drawn) [Nisoldipine] (9.99911 µM)", "XPO1 fluorescence intensity change (log2)": -0.0526},
      {"molecule": "O=C1Nc2ccc(Cl)cc2[C@@](C#CC2CC2)(C(F)(F)F)O1", "note": "[Efavirenz] (10 µM)", "XPO1 fluorescence intensity change (log2)": 0.037},
      {"molecule": "CC(=O)O[C@H]1C[C@@H]2CC[C@@H]3[C@H](CC[C@@]4(C)[C@H]3C[C@H]([N+]3(C)CCCCC3)[C@@H]4OC(C)=O)[C@@]2(C)C[C@@H]1N1CCCCC1", "note": "[Vecuronium Bromide] (10.00071805 µM)", "XPO1 fluorescence intensity change (log2)": 0.0468},
      {"molecule": "C[C@]12C=CC(=O)C=C1CC[C@@H]1[C@@H]2[C@@H](O)C[C@@]2(C)[C@H]1CC[C@]2(O)C(=O)CO", "note": "[Prelone] (1.1755 µM)", "XPO1 fluorescence intensity change (log2)": -0.153},
      {"molecule": "CO[C@H]1/C=C/O[C@@]2(C)Oc3c(C)c(O)c4c(c3C2=O)C2=NC3(CCN(CC(C)C)CC3)NC2=C(NC(=O)/C(C)=C\\C=C\\[C@H](C)[C@H](O)[C@@H](C)[C@@H](O)[C@@H](C)[C@H](OC(C)=O)[C@@H]1C)C4=O", "note": "[Rifabutin] (9.99925 µM)", "XPO1 fluorescence intensity change (log2)": -0.0963},
      {"molecule": "Cc1cn(-c2cc(NC(=O)c3ccc(C)c(Nc4nccc(-c5cccnc5)n4)c3)cc(C(F)(F)F)c2)cn1", "note": "[Nilotinib] (20 µM)", "XPO1 fluorescence intensity change (log2)": -0.0273},
      {"molecule": "CC(=O)O[C@@]12CO[C@@H]1C[C@H](O)[C@@]1(C)C(=O)[C@H](O)C3=C(C)[C@@H](OC(=O)[C@H](O)[C@@H](NC(=O)OC(C)(C)C)c4ccccc4)C[C@@](O)([C@@H](OC(=O)c4ccccc4)[C@H]21)C3(C)C", "note": "[Docetaxel] (0.00463667 µM)", "XPO1 fluorescence intensity change (log2)": 0.0112},
      {"molecule": "Cc1ccc(Nc2nccc(N(C)c3ccc4c(C)n(C)nc4c3)n2)cc1S(N)(=O)=O", "note": "[Pazopanib] (11.455 µM)", "XPO1 fluorescence intensity change (log2)": -0.0226},
      {"molecule": "CC(C)C[C@H](NC(=O)[C@@H](Cc1c[nH]c2ccccc12)NC(=O)[C@H](Cc1ccc(O)cc1)NC(=O)[C@H](CO)NC(=O)[C@H](Cc1c[nH]c2ccccc12)NC(=O)[C@H](Cc1c[nH]cn1)NC(=O)[C@@H]1CCC(=O)N1)C(=O)N[C@@H](CCCNC(=N)N)C(=O)N1CCC[C@H]1C(=O)NCC(N)=O", "note": "[Triptorelin] (20 µM)", "XPO1 fluorescence intensity change (log2)": -0.148},
      {"molecule": "NS(=O)(=O)Cc1noc2ccccc12", "note": "[Zonisamide] (10 µM)", "XPO1 fluorescence intensity change (log2)": 0.126},
      {"molecule": "CNC(=O)c1ccccc1Sc1ccc2c(/C=C/c3ccccn3)n[nH]c2c1", "note": "[Axitinib] (20 µM)", "XPO1 fluorescence intensity change (log2)": -0.117},
      {"molecule": "NC(=O)c1ncn([C@@H]2O[C@H](CO)[C@@H](O)[C@H]2O)n1", "note": "[Ribavirin] (10 µM)", "XPO1 fluorescence intensity change (log2)": -0.105},
      {"molecule": "CCC(=O)NCC[C@@H]1CCc2ccc3c(c21)CCO3", "note": "[Ramelteon] (10 µM)", "XPO1 fluorescence intensity change (log2)": 0.00256},
      {"molecule": "Nc1nc2ccc(OC(F)(F)F)cc2s1", "note": "[Riluzole] (10.0074 µM)", "XPO1 fluorescence intensity change (log2)": -0.00625},
      {"molecule": "CN(Cc1cnc2nc(N)nc(N)c2n1)c1ccc(C(=O)N[C@@H](CCC(=O)O)C(=O)O)cc1", "note": "[Methotrexate] (0.04575 µM)", "XPO1 fluorescence intensity change (log2)": 0.216},
      {"molecule": "N[C@@H](CC(=O)N1CCn2c(nnc2C(F)(F)F)C1)Cc1cc(F)c(F)cc1F", "note": "[Sitagliptin] (10.0003 µM)", "XPO1 fluorescence intensity change (log2)": 0.138},
      {"molecule": "N#Cc1ccc(C(c2ccc(C#N)cc2)n2cncn2)cc1", "note": "[Letrozole] (20 µM)", "XPO1 fluorescence intensity change (log2)": -0.188},
      {"molecule": "CO[C@@H]1[C@@H](OC(N)=O)[C@@H](O)[C@H](Oc2ccc3c(O)c(NC(=O)c4ccc(O)c(CC=C(C)C)c4)c(=O)oc3c2C)OC1(C)C", "note": "[Novobiocin] (10 µM)", "XPO1 fluorescence intensity change (log2)": 0.122},
      {"molecule": "Cc1[nH]nc2c1C(c1cc(CO)cc(-c3ccccc3)c1)(C(C)C)C(C#N)=C(N)O2", "note": "(stereo not drawn) (10 µM)", "XPO1 fluorescence intensity change (log2)": 0.206},
      {"molecule": "CC(C)C(=O)Nc1ccc([N+](=O)[O-])c(C(F)(F)F)c1", "note": "[Flutamide] (20 µM)", "XPO1 fluorescence intensity change (log2)": 0.021}
    ]}
  ]
}
